Results are given in words; binding and its absence hold for the method and conditions named. In cells and extracts the contact can be indirect. Some entries that bind do so weakly or less than the wild type.

Assay in all cases: co-IP; GFP-Trap agarose precipitation of C-terminally GFP-tagged BORCS5 constructs from lysates of transfected cells 24 h after transfection (10 mM Tris-Cl pH 7.5, 150 mM NaCl, 0.5 mM EDTA, 1% Triton X-100, 10% glycerol), 2 h at 4°C, five washes; endogenous SNAPIN and BORCS7 detected by immunoblotting; GFP alone as control
For orientation: Immunoblotting shows a protein as a band on a membrane.

The target in assay [1] is BORCS5 R95Q, C-terminally GFP-tagged (human) (UniProt Q969J3).
For assay [2], the target named is BORCS5 wild type, C-terminally GFP-tagged (BLOC-One-Related Complex subunit 5) (human) (UniProt Q969J3).
The target in assay [3] is BORCS5 H99P, C-terminally GFP-tagged (human) (UniProt Q969J3).

B1: BORCS7 (protein, UniProt Q96B45 1-106)
chain: MMATGTPESQARFGQSVKGLLTEKVTTCGTDVIALTKQVLKGSRSSELLGQAARNMVLQEDAILHSEDSLRKMAIITTHLQYQQEAIQKNVEQSSDLQDQLNHLLK
B1: the binding result in assay [1] and in assay [2] was “binds” in each case.

B2: SNAPIN (protein, UniProt O95295 1-136)
chain: MAGAGSAAVSGAGTPVAGPTGRDLFAEGLLEFLRPAVQQLDSHVHAVRESQVELREQIDNLATELCRINEDQKVALDLDPYVKKLLNARRRVVLVNNILQNAQERLRRLNHSVAKETARRRAMLDSGIYPPGSPGK
With B2, the binding entry in assay [3], in assay [1] and in assay [2] was “binds” in each case.

These data come from publication doi:10.1101/2025.04.30.25326597.
